Results deposited as PubChem BioAssay AID504795 (Drosophila RNAi Screening Center, 2011)
Aim: 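Fly genes whose loss alters neurite growth or neural cell form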 (primary screen). System: primary Drosophila neurons and glia. Reagent: long dsRNA against Drosophila genes, 250 ng dsRNA per well. Timing: one week. Detection: 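GFP-labelled neurons and glia imaged live by automated microscope one week after 250 ng dsRNA per well; morphology scored by eye as descriptive phenotype terms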.
The reagents shown are a selection, not the whole library. 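Every listed dsRNA shows some phenotype; how reagents were selected for listing is not stated.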 Names joined by + are all predicted targets of the reagent.

| gene knocked down | amplicon | phenotype seen, replicate 1 | phenotype seen, replicate 2 |
| --- | --- | --- | --- |
| CG42500 | DRSC14822 | axon bundles split apart | – |
| CG17198 + CG17197 | DRSC15191 | axon bundles split apart | – |
| Lim3 | DRSC02475 | abnormal cell clusters | – |
| Dys (Dystrophin) | DRSC15260 | sheet-like cell extensions | – |
| hgo (homogentisate 1,2-dioxygenase) | DRSC03544 | too many neurite branches | sheet-like cell extensions |
| CG10991 (retired record) | DRSC12156 | too many neurite branches | – |
| GalT1 (beta1,3-galactosyltransferase 1) | DRSC22238 | too many neurite branches | – |
| stan (starry night) | DRSC07697 | too many neurite branches | – |
| Cpr49Af (Cuticular protein 49Af) | DRSC07202 | abnormal cell clusters | – |
| CG13314 | DRSC09985 | axon bundles split apart | – |
| CR33315 (pseudo) | DRSC22947 | axon bundles split apart | – |
| shep (alan shepard) | DRSC09771 | axon bundles split apart | – |
| jv (javelin) | DRSC08832 | axon bundles split apart | – |
| mas (masquerade) | DRSC08720 | beaded; swollen axons | – |
| Pldn (Pallidin) | DRSC10137 | cell fragments present | – |
| Jon25Bii (Jonah 25Bii) | DRSC03114 | beaded; swollen axons | – |
| CG7220 | DRSC07018 | abnormal cell clusters | – |
| CG2656 | DRSC12584 | axon bundles split apart | – |
| Lcp4 (Larval cuticle protein 4) | DRSC07458 | too many neurite branches | – |
| CG2186 | DRSC19838 | cell fragments present | – |
| CG1542 | DRSC15035 | too many neurite branches | – |
| Mp20 (Muscle protein 20) | DRSC07474 | sheet-like cell extensions | – |
| CG31678 | DRSC02619 | abnormal cell clusters | – |
| CG13108 | DRSC02206 | abnormal cell clusters | – |
| CG30376 | DRSC05086 | sheet-like cell extensions | – |
| CG15296 | DRSC17983 | sheet-like cell extensions | – |
| CG4610 | DRSC04477 | axon bundles split apart | – |
| TfIIA-S-2 | DRSC17791 | axon bundles split apart | – |
| CG15635 | DRSC00470 | reduced axon outgrowth | – |
| CG33268 | DRSC10143 | too many neurite branches | – |
| I-t (inhibitor-t) | DRSC16713 | reduced axon outgrowth | – |
| AcCoAS (Acetyl Coenzyme A synthase) | DRSC22850 | axon bundles split apart | – |
| CG5339 | DRSC04496 | reduced axon outgrowth | – |
| Ada2b (transcriptional Adaptor 2b) | DRSC16531 | abnormal cell clusters | – |
| lft (lowfat) | DRSC02236 | too many neurite branches | – |
| Cdk5alpha (Cdk5 activator-like protein) | DRSC03290 | abnormal cell clusters | – |
| alphaCOP (Coat Protein (coatomer) alpha) | DRSC08706 | cell fragments present | – |
| CG3473 | DRSC01915 | axon bundles split apart | – |
| CG12507 | DRSC19463 | beaded; swollen axons | – |
| sns (sticks and stones) | DRSC06423 | abnormal cell clusters | – |
| CalpA (Calpain-A) | DRSC07352 | too many neurite branches | – |
| CG5157 | DRSC10488 | reduced axon outgrowth | – |
| Pngl (PNGase-like) | DRSC04914 | abnormal cell clusters | – |
| Tom40 (Translocase of outer membrane 40) | DRSC18796 | sheet-like cell extensions | – |
| CG7044 | DRSC16180 | axon bundles split apart | – |
| Act88F (Actin 88F) | DRSC14105 | sheet-like cell extensions | – |
| CG7409 | DRSC10842 | sheet-like cell extensions | – |
| CG8508 | DRSC16436 | abnormal cell clusters | – |
| Gr47b (Gustatory receptor 47b) | DRSC05275 | too many neurite branches | – |
| CG42299 + CG42300 | DRSC19815 | too many neurite branches | – |
| mRpL41 (mitochondrial ribosomal protein L41) | DRSC06257 | fewer cells | – |
| CG10725 | DRSC09788 | too many neurite branches | – |
| CG3594 | DRSC04393 | abnormal cell clusters | – |
| shams | DRSC16590 | abnormal cell clusters | – |
| CG12857 | DRSC06197 | sheet-like cell extensions | – |
| CG13218 | DRSC06340 | abnormal cell clusters | – |
| CG14537 | DRSC02395 | axon bundles split apart | – |
| CG10298 | DRSC12522 | too many neurite branches | – |
| CG12477 | DRSC09886 | fewer cells | – |

Continued, starting with the last 11 of the part before.
| gene knocked down | amplicon | phenotype seen, replicate 1 | phenotype seen, replicate 2 |
| --- | --- | --- | --- |
| Gr47b (Gustatory receptor 47b) | DRSC05275 | too many neurite branches | – |
| CG42299 + CG42300 | DRSC19815 | too many neurite branches | – |
| mRpL41 (mitochondrial ribosomal protein L41) | DRSC06257 | fewer cells | – |
| CG10725 | DRSC09788 | too many neurite branches | – |
| CG3594 | DRSC04393 | abnormal cell clusters | – |
| shams | DRSC16590 | abnormal cell clusters | – |
| CG12857 | DRSC06197 | sheet-like cell extensions | – |
| CG13218 | DRSC06340 | abnormal cell clusters | – |
| CG14537 | DRSC02395 | axon bundles split apart | – |
| CG10298 | DRSC12522 | too many neurite branches | – |
| CG12477 | DRSC09886 | fewer cells | – |
| mrva (minerva) | DRSC21842 | sheet-like cell extensions | – |
| INPP5E (Inositol polyphosphate 5-phosphatase E) | DRSC09723 | too many neurite branches | – |
| CG18538 | DRSC06765 | abnormal cell clusters | – |
| CG4907 | DRSC15673 | abnormal cell clusters | – |
| ect (ectodermal) | DRSC10675 | axon bundles split apart | – |
| ect (ectodermal) | DRSC11343 | sheet-like cell extensions | – |
| Daao1 (D-amino acid oxidase 1) | DRSC06131 | reduced axon outgrowth | – |
| CG7483 | DRSC16249 | reduced axon outgrowth | – |
| CG1316 | DRSC08304 | sheet-like cell extensions | – |
| tsr (twinstar) | DRSC04718 | too many neurite branches | – |
| Spc25 | DRSC14164 | sheet-like cell extensions | – |
| flr (flare) | DRSC09787 | axon bundles split apart | – |
| CG30127 (retired record) | DRSC05786 | too many neurite branches | – |
| CG1513 | DRSC06554 | axon bundles split apart | – |
| sm (smooth) | DRSC05795 | axon bundles split apart | – |
| CG32409 | DRSC08780 | sheet-like cell extensions | – |
| ND-B12 (NADH dehydrogenase (ubiquinone) B12 subunit) | DRSC04060 | too many neurite branches | – |
| CG31551 | DRSC22403 | too many neurite branches | – |
| Polr2J (RNA polymerase II subunit J) | DRSC02995 | too many neurite branches | – |
| Vps60 (Vacuolar protein sorting 60) | DRSC10610 | axon bundles split apart | – |
| Or67c (Odorant receptor 67c) | DRSC11242 | too many neurite branches | – |
| Burs (Bursicon) | DRSC14595 | abnormal cell clusters | – |
| NaPi-T (Na[+]-dependent inorganic phosphate cotransporter) | DRSC07476 | axon bundles split apart | – |
| CG15080 | DRSC06511 | abnormal cell clusters | – |
| Rab23 | DRSC12305 | sheet-like cell extensions | – |
| Cdc42 (Cell division cycle 42) | DRSC20228 | sheet-like cell extensions | – |
| CG15498 | DRSC15040 | reduced axon outgrowth | – |
| Lerp (lysosomal enzyme receptor protein) | DRSC14750 | axon bundles split apart | – |
| Lerp (lysosomal enzyme receptor protein) | DRSC14751 | abnormal cell clusters | – |
| asRNA:CR42743 + CG34162 | DRSC01190 | axon bundles split apart | – |
| Apc (APC-like) | DRSC14114 | abnormal cell clusters | – |
| CG8773 | DRSC16444 | axon bundles split apart | – |
| Nf-YC (Nuclear factor Y-box C) | DRSC18272 | axon bundles split apart | – |
| CG2871 | DRSC21719 | axon bundles split apart | – |
| CG5011 | DRSC00039 | abnormal cell clusters | – |
| Prosbeta1 (Proteasome beta1 subunit) | DRSC07159 | too many neurite branches | – |
| CG18870 | DRSC04313 | cell fragments present | – |
| bru3 (bruno 3) | DRSC09887 | cell fragments present | – |
| CG42502 + CG10570 | DRSC02071 | too many neurite branches | – |
| HDAC4 (Histone deacetylase 4) | DRSC19780 | sheet-like cell extensions | – |
| CG12377 (retired record) | DRSC11672 | axon bundles split apart | – |
| CG16787 | DRSC04282 | too many neurite branches | – |
| CG12912 | DRSC06227 | axon bundles split apart | – |
| eyg (eyegone) | DRSC11344 | abnormal cell clusters | – |
| CG9733 | DRSC16549 | cell fragments present | – |
| CR11700 (retired record) | DRSC17794 | weaker green signal | – |
| cv-d (crossveinless d) | DRSC16526 | too many neurite branches | – |
| stumps | DRSC15332 | axon bundles split apart | – |
| Aplip1 (APPL-interacting protein 1) | DRSC07947 | axon bundles split apart | – |
| Aplip1 (APPL-interacting protein 1) | DRSC08697 | sheet-like cell extensions | – |
| Dus2 (Dihydrouridine synthase 2) | DRSC19591 | axon bundles split apart | – |
| Polr2M (RNA polymerase II subunit M) | DRSC15513 | too many neurite branches | – |
| CG13995 | DRSC00907 | sheet-like cell extensions | – |
| Ak1 (Adenylate kinase 1) | DRSC10248 | axon bundles split apart | – |
| eIF4E5 (eukaryotic translation initiation factor 4E5) | DRSC10975 | too many neurite branches | – |
| CG5347 | DRSC19942 | too many neurite branches | – |
| CG33474 | DRSC05218 | abnormal cell clusters | – |
| CG6333 | DRSC10626 | too many neurite branches | – |
| Acp53C14c (Accessory gland protein 53C14c) | DRSC05626 | too many neurite branches | – |
| CG10950 | DRSC06020 | abnormal cell clusters | – |
| Sema1a (Semaphorin 1a) | DRSC03433 | axon bundles split apart | – |
| dup (double parked) | DRSC07088 | axon bundles split apart | – |
| lin-52 | DRSC18106 | reduced axon outgrowth | – |
| CG34168 | DRSC01938 | axon bundles split apart | – |
| Kdm4B (Lysine demethylase 4B) | DRSC06862 | abnormal cell clusters | – |
| byn (brachyenteron) | DRSC11332 | axon bundles split apart | – |
| tor (torso) | DRSC07707 | axon bundles split apart | – |
| RpLP0 (Ribosomal protein LP0) | DRSC11878 | axon bundles split apart | – |
| RpLP0 (Ribosomal protein LP0) | DRSC22110 | too many neurite branches | too many neurite branches |
| CG17167 | DRSC20903 | abnormal cell clusters | – |
| BtbVII (BTB-protein-VII) | DRSC08151 | axon bundles split apart | – |
| RpL8 (Ribosomal protein L8) | DRSC08532 | reduced axon outgrowth | – |
| RpL8 (Ribosomal protein L8) | DRSC08695 | too many neurite branches | – |
| Dh44-R2 (Diuretic hormone 44 receptor 2) | DRSC06281 | abnormal cell clusters | – |
| scaf6 (SR-related CTD associated factor 6) | DRSC10678 | axon bundles split apart | – |
| CG11686 | DRSC14350 | sheet-like cell extensions | – |
| cni (cornichon) | DRSC03512 | cell fragments present | – |
| Lcp3 (Larval cuticle protein 3) | DRSC07457 | fewer cells | – |
| bard | DRSC14796 | axon bundles split apart | – |
